Patent publication US20130338221A1, “PHOTOAGING PROTECTIVE COMPOSITION CONTAINING CHROMENES DERIVED FROM SARGASSUM HORNERI” (PUKYONG NATIONAL UNIVERSITY INDUSTRY-UNIVERSITY C, priority 2012, published 2013)
At least one compound was matched to its structure with a doubt left.

Columns and labels:
[1] = tested on: hyaluronan; assay: Hyaluronan secretion ELISA in UV-A irradiated fibroblasts; format: cell-based, human; conditions: retinoic acid 1 μM
Method: For measuring various collagen degradation MMP and inflammatory cytokine, collagen content in a cell, an enzyme-linked immunosorbent assay was used after UV-A irradiation. After irradiating HDF cell with UV-A, the cells were incubated with various concentrations of sample. After 24 h, the supernatants of the HDF cells were collected, and used for testing MMP, cytokine, hyaluronan, and collagen. For testing, Biotrak™ ELISA kits (Amersham Pharmacia Biosciences, England, UK), procollagen ELISA kit (Takara Bio Inc), and Hyaluronan ELISA kits (R&D system) were used according to the manufacturer's instructions.
Then, we evaluated effect of chromenes on hyaluronan secretion by UV-A irradiation.

[2] = tested on: intracellular glutathione (GSH) in HDF cells; assay: Intracellular GSH level (mBBr) after UV-A; format: cell-based, human; conditions: after UV-A irradiation
Method: Intracellular glutathione (GSH) level in intact cells was determined using monobromobimane as a thiol-staining reagent. HDF cells were seeded into fluorescence microtiter 96-well plates at a density of 5×10^3 cells/well. Cell were washed three times with PBS and treated with various concentrations of the compounds after 6 J/cm^2 of UV-A irradiation and incubated for 30 min. 0.04 mM of Monobromobimane was added to cells and staining was carried out for 24 h at 37° C. in the dark. After staining fluorescence intensity was measured (excitation and emission: 360 and 465 nm) using a GENios® fluorescence microplate reader (Tecan Austria GmbH, Salzburg, Austria).
GSH is the most abundant low molecular weight thiol inside mammalian cells, and changes in glutathione level directly reflect intracellular redox alterations. To investigate the relationship between the increased ROS and the level of antioxidant materials in cells, the intracellular GSH level was measured.

In the case of `CC1=C(/C=C/C(C)=C/C=C/C(C)=C/C(=O)O)C(C)(C)CCC1` [Retinoic acid, retinoic acid, reference compound], the “Hyaluronan secretion level (in words)” value [1] was “successfully inhibited” and the “Intracellular GSH level (in words)” value [2] was “increased slightly”.
